Results are given in words; binding and its absence hold for the method and conditions named. For some assays here: Binding seen in cells or lysates may run through a third protein. Some results given as binding are weak or reduced against the parent protein; the word gives no strength.
Tests used:
[1] = molecular target: 'HIS' tagged TRIP-1 (Homo sapiens (Human)) (UniProt Q13347); assay: GST-TRAP pull-down from 293T cell lysate (FIG. 19)
[2] = molecular target: 'HIS' tagged TRIP-1 (Homo sapiens (Human)) (UniProt Q13347); assay: GST-TRAP added to transfected cells, glutathione bead pull-down from lysate, Western with anti-HIS
[3] = molecular target: purified type V tartrate resistant acid phosphatase (TRAP), also known as uteroferrin (UniProt P09889); assay: GST pull-down with glutathione beads, Far-Western detection of TRAP (FIG. 15B)
[4] = molecular target: purified type V tartrate resistant acid phosphatase (TRAP), also known as uteroferrin (UniProt P09889); assay: GST pull-down with glutathione beads, Far-Western detection of TRAP (FIG. 15b)
[5] = molecular target: purified type V tartrate resistant acid phosphatase (TRAP), also known as uteroferrin (UniProt P09889); assay: osteoblast cDNA phage display, three rounds of bio-panning on TRAP
[6] = molecular target: purified type V tartrate resistant acid phosphatase (TRAP), also known as uteroferrin (UniProt P09889); assay: phage ELISA on immobilised TRAP, HRP anti-T7 antibody (FIG. 15A)
[7] = molecular target: purified type V tartrate resistant acid phosphatase (TRAP), also known as uteroferrin (UniProt P09889); assay: phage ELISA on immobilised TRAP, HRP anti-T7 antibody (FIG. 15a)
[8] = molecular target: purified type V tartrate resistant acid phosphatase (TRAP), also known as uteroferrin (UniProt P09889); assay: T7 osteoblast cDNA phage display, bio-panning on immobilised TRAP

Amino acid sequences for entries named in this document (tags omitted). A change or cut given only in a name is not applied to a line headed by its entry. Residues count along the entry.
UniProt Q13347: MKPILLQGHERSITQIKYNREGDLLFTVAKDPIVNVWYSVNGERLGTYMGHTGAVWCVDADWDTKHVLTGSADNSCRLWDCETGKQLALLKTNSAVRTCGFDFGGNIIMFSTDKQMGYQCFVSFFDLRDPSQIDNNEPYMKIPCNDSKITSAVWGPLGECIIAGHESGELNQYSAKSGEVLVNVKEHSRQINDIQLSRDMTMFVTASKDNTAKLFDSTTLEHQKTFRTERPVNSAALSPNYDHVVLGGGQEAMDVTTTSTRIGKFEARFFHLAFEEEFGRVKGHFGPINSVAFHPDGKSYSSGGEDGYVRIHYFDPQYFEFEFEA
UniProt P09889, residues 22-340: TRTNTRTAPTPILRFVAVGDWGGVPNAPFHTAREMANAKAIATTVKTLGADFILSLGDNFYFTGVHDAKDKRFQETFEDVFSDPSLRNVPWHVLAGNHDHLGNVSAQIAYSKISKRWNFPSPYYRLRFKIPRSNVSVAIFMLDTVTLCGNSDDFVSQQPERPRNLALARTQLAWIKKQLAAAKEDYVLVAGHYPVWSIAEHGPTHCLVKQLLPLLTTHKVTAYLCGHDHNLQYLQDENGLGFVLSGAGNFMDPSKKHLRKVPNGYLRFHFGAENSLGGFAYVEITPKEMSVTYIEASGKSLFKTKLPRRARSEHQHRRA
UniProt P13686: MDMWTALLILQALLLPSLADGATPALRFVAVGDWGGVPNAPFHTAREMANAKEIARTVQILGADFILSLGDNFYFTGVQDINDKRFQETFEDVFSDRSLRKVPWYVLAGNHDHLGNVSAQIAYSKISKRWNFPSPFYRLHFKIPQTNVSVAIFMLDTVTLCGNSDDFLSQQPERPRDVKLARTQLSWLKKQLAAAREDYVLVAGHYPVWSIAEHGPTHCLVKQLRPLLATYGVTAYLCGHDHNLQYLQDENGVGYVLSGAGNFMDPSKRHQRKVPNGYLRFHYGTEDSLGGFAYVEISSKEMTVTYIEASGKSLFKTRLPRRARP
UniProt B0BNA7: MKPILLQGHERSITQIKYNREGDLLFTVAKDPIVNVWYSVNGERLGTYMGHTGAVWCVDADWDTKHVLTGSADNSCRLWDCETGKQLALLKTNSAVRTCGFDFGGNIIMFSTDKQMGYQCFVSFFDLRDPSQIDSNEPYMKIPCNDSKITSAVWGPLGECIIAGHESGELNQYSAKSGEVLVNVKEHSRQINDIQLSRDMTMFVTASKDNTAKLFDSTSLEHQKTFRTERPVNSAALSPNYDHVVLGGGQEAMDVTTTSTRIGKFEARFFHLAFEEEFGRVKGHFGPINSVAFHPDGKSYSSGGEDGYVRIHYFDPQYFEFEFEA

GST-TRAP fusion protein (from UniProt P13686 22-325)
binding [1]: binds | binding [2]: binds

GST-TRIP fusion protein (human TRIP-1 fused to glutathione-S transferase) (from UniProt Q13347 1-325)
binding [3]: binds | binding [4]: binds

TRIP clone of the rat osteoblast cDNA phage display library in M13 phage (Example 1) (from UniProt B0BNA7 1-325)
binding [5]: binds

TRIP-1-expressing T7 phage (rat osteoblast cDNA library, Example 3) (from UniProt B0BNA7 1-325)
binding [6]: binds | binding [7]: binds | binding [8]: binds

Reference: patent US20050112168A1
